Test results as given in US12507703B2, “Methods, devices and compositions for preserving human milk” (The Trustees of Princeton University, priority 2023, dated 2025).
For at least one compound, name, drawing or mass did not settle the structure.

Test system: lipase
Experiment: Lipase/lipolysis assay (EnzChek Lipase Substrate, quenched BODIPY-fatty acid conjugate) on stored human milk; also: test concentration or dose not given here

`C/C=C/c1ccc(OC)c(OC)c1` [Methyl isoeugenol] was tested, and the “Lipase (RFU)” value was 813.2954 RFU.
